Reference: the supplement of paper PMC10849652
This is one part of the list.

Sequences of proteins named here, by UniProt entry; tags and fusion partners are left off. A change or cut given only in a name is not applied to a line headed by its entry.
UniProt Q9Y4E8: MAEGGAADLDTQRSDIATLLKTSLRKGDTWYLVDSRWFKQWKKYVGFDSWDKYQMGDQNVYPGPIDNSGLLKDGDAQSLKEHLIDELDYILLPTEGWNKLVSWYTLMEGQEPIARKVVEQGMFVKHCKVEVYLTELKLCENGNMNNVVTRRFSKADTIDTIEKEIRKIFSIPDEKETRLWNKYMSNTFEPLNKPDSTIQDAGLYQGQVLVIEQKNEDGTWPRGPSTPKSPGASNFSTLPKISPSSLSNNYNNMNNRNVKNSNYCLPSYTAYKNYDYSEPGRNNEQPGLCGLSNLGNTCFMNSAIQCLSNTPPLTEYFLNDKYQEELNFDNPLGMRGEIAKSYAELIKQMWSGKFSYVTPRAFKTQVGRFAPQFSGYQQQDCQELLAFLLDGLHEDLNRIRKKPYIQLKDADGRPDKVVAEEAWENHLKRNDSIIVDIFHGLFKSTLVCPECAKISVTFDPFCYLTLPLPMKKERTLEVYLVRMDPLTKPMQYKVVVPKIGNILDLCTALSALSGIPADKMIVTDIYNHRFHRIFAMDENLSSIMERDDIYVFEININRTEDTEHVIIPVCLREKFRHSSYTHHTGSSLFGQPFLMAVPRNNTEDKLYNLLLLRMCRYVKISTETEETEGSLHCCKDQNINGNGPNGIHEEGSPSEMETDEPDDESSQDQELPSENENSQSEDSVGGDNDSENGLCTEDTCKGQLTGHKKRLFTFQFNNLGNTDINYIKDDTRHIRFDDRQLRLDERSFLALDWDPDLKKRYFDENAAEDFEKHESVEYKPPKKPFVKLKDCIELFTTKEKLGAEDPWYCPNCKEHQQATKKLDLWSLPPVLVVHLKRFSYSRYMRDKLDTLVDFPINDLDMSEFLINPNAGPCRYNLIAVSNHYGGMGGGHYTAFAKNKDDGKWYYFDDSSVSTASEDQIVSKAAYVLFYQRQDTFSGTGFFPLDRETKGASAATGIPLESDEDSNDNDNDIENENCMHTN
UniProt P07919: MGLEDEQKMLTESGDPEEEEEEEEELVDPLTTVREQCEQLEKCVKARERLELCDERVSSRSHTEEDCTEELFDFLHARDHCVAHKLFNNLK
UniProt Q96RL1: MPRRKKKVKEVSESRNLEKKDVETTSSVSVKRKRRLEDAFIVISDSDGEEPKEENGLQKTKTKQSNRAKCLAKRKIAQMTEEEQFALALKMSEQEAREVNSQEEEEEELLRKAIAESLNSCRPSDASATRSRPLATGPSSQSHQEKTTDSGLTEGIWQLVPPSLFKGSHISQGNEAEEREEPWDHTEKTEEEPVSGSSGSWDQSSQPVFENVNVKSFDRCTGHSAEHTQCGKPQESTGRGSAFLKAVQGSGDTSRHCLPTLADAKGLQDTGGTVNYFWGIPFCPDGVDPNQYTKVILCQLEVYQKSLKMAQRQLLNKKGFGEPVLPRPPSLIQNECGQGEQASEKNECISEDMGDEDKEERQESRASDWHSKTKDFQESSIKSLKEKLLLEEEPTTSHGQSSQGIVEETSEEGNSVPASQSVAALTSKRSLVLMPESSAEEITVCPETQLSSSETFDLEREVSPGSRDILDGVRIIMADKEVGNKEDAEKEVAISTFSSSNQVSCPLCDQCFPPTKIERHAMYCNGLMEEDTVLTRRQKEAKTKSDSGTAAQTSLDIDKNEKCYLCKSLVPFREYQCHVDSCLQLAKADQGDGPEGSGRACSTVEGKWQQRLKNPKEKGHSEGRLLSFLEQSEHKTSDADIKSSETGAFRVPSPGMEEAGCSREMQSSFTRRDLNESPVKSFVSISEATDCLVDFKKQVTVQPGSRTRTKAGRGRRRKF
UniProt Q08AM6: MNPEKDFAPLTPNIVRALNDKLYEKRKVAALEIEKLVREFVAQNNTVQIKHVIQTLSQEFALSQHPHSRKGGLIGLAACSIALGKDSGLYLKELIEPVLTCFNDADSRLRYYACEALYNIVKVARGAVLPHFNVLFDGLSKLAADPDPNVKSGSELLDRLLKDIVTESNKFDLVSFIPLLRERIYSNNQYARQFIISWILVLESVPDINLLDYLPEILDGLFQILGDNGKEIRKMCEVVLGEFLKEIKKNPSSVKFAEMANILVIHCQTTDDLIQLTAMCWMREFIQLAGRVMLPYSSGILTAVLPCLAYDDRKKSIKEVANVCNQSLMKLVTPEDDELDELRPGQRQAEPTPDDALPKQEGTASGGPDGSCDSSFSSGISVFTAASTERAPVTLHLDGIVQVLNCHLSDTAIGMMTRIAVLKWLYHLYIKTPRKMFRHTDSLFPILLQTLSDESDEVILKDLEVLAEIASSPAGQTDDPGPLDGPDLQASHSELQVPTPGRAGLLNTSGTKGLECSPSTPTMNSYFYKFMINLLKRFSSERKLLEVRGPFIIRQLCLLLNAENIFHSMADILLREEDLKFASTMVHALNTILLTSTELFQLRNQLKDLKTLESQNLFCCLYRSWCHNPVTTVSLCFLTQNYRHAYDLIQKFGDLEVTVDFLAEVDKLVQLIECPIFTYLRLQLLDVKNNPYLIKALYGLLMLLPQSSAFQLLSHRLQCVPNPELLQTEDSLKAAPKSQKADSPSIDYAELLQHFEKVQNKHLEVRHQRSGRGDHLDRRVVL
UniProt Q15853: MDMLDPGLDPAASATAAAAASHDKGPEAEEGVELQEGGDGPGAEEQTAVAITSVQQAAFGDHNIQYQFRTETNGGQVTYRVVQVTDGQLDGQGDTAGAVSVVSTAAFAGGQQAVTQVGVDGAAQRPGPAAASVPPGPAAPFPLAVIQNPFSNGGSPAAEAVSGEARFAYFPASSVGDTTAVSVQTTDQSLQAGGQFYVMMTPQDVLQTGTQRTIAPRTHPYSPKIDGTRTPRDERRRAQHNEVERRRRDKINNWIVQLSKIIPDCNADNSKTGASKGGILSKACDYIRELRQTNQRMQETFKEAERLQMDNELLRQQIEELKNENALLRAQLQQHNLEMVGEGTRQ
UniProt Q9Y6I4: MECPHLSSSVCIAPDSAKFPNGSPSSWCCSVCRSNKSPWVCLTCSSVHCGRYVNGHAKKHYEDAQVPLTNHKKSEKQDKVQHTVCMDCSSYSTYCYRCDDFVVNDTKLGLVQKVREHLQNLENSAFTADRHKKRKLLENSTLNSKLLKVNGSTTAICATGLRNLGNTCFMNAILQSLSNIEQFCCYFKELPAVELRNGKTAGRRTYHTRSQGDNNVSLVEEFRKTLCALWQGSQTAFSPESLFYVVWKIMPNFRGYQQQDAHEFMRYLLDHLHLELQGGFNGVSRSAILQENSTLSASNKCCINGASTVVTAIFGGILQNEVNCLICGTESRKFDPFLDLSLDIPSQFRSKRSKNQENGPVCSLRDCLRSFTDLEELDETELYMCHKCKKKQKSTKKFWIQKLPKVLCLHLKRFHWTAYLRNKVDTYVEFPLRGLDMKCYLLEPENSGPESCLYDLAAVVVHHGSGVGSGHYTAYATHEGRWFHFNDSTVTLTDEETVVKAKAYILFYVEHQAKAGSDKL
UniProt Q9H3U1: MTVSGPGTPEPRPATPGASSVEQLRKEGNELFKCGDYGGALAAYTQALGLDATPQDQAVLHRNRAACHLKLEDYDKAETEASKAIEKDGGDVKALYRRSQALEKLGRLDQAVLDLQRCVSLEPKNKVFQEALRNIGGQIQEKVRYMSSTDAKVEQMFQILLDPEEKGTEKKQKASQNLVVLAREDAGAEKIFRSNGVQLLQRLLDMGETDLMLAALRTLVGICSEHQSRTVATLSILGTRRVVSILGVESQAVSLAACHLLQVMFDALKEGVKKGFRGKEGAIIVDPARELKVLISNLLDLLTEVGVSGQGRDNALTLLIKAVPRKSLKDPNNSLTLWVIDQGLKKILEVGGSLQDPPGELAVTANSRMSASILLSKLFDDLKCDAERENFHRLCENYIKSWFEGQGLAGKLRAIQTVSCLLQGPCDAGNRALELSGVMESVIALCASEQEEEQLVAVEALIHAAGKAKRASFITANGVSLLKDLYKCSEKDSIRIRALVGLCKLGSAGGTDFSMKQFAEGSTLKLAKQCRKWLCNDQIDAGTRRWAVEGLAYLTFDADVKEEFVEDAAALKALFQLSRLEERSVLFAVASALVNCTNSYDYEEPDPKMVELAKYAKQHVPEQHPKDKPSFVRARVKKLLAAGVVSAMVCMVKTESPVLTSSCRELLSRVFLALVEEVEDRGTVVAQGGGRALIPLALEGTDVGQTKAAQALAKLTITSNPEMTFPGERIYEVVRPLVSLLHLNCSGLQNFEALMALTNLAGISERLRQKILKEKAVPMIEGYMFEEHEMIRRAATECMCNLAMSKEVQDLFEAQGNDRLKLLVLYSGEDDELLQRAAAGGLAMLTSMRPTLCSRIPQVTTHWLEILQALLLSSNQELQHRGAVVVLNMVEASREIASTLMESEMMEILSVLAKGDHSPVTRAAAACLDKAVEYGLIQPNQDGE
UniProt Q9Y5K5, whole entry, looked up: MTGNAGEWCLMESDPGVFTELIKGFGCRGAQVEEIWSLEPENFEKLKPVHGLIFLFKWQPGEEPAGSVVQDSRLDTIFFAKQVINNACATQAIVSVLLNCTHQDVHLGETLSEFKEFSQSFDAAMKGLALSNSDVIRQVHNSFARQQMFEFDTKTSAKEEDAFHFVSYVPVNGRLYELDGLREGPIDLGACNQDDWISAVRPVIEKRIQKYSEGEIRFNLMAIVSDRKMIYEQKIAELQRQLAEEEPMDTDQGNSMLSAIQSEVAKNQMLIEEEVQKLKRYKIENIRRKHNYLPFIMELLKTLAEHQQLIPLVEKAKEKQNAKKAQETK
UniProt Q9UDW1: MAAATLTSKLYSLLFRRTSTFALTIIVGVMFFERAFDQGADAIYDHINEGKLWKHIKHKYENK
UniProt Q92995: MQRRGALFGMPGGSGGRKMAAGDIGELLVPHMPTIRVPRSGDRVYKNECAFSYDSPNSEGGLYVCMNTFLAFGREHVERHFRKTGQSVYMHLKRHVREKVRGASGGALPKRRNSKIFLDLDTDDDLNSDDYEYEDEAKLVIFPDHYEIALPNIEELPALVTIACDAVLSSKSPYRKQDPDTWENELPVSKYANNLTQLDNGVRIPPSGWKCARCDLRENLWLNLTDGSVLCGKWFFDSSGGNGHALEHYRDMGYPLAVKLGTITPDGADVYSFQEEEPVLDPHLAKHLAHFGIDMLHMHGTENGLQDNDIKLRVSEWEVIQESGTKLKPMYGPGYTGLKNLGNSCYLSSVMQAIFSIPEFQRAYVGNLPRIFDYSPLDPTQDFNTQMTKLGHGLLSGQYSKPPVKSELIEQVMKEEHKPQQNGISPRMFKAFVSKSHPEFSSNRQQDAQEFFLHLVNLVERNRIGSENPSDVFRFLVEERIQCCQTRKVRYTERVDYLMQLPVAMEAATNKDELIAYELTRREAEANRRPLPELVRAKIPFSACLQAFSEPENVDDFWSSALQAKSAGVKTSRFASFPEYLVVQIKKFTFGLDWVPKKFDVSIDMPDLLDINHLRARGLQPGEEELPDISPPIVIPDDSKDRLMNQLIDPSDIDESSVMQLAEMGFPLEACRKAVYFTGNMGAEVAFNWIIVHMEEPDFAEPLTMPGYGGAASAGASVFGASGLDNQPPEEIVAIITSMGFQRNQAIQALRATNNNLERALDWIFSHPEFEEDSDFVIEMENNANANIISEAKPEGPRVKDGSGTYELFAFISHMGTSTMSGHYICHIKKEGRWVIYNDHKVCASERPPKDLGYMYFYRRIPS

Legend:
Experiment in all cases: log2 fold change, soluble protein after heating vs DMSO (PISA); higher = thermal stabilisation; K562 cells, 10 uM, 30 min; active = over 0.2 and 3.5 SD of the protein, either way, in both replicates (recomputed)
[1] = compound: CC[C@@H]1C(=O)N(C)c2cnc(Nc3ccc(C(=O)NC4CCN(C)CC4)cc3OC)nc2N1C1CCCC1
Method in brief: (§1)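 K562 cells at 2×10^6 cells/mL were treated with 10 μM compound for 30 min. Aliquots were heated for 3 min across 48°C-58°C, pooled, and extracted in PBS with 0.5% NP-40 at 4°C; soluble protein was the supernatant after 21,000xg for 90 min. Soluble protein was quantified by TMTpro 16plex LC-MS/MS with channel sums equalised, and reported as log2 fold change in thermal stability against DMSO controls, with values from duplicates.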

volasertib = compound: CC[C@@H]1C(=O)N(C)c2cnc(Nc3ccc(C(=O)N[C@H]4CC[C@H](N5CCN(CC6CC6)CC5)CC4)cc3OC)nc2N1C(C)C [volasertib]
Method in brief: as §1

[2] = compound: CC[C@H](C)N1C=C(C2=C(C=C(C=C21)C3=CN=C(C=C3)N4CCNCC4)C(=O)NCC5=C(C=C(NC5=O)C)C)C
Method in brief: as §1

epoxomicin = compound: CC[C@H](C)[C@@H](C(=O)N[C@@H]([C@@H](C)O)C(=O)N[C@@H](CC(C)C)C(=O)[C@]1(CO1)C)NC(=O)[C@H]([C@@H](C)CC)N(C)C(=O)C [epoxomicin]
Method in brief: as §1

[3] = compound: CCn1cc(-c2ccnc3[nH]c(-c4cccc(CN(C)C)c4)cc23)c(-c2ccc(NC(=O)N(C)C)cc2)n1
Method in brief: as §1

[4] = compound: CN(C)CC(=O)Nc1ccc2[nH]c(=O)c3ccccc3c2c1
Method in brief: as §1

[5] = compound: CN1C2=C(C3=C1C(=O)N(N=C3)CC4=CC(=CC=C4)N)SC(=C2)S(=O)C
Method in brief: as §1

[6] = compound: CN1CCC(CNc2ccc3ncc(-c4cccc(OC(F)(F)F)c4)n3n2)CC1
Method in brief: as §1

[7] = compound: CCn1c(C(=O)N(C2CC2)C2CC2)cc2c3c(ncn3C)c(Nc3cc(C)n(C)n3)nc21
Method in brief: as §1

rosiglitazone = compound: CN(CCOC1=CC=C(C=C1)C[C@H]2C(=O)NC(=O)S2)C3=CC=CC=N3 (racemic) [rosiglitazone]
Method in brief: as §1

Row | Target | log2 fold change [1] | log2 fold change (volasertib) | log2 fold change [2] | log2 fold change (epoxomicin) | log2 fold change [3] | log2 fold change [4] | log2 fold change [5] | log2 fold change [6] | log2 fold change [7] | log2 fold change (rosiglitazone)
1 | USP24 (UniProt Q9UPU5) | inactive: -0.04 | inactive: -0.1 | inactive: -0.047 | inactive: 0.073 | inactive: -0.062 | inactive: 0.055 | inactive: -0.123 | inactive: 0.137 |  | 
2 | USP22 (UniProt Q9UPT9) | inactive: -0.15 | inactive: -0.168 | inactive: 0.144 | inactive: 0.089 |  | inactive: 0.099 | inactive: -0.001 |  | inactive: -0.042 | inactive: 0.121
3 | USP15 (UniProt Q9Y4E8) | inactive: -0.095 | active: -0.32 | inactive: 0.066 | inactive: 0.03 | inactive: -0.056 | inactive: 0.031 | inactive: -0.006 | inactive: -0.129 |  | 
4 | UBXN10 (UniProt Q96LJ8) | inactive: -0.057 | inactive: -0.319 | inactive: 0.156 | inactive: 0.127 | inactive: 0.014 | inactive: -0.088 | inactive: 0.087 | inactive: -0.103 |  | 
5 | UNC93B1 (UniProt Q9H1C4) | inactive: 0.006 | inactive: -0.144 | inactive: -0.048 | inactive: 0.041 | inactive: -0.167 |  | inactive: -0.142 | inactive: 0 | inactive: -0.05 | inactive: 0.064
6 | USP8 (UniProt P40818) | inactive: -0.042 | inactive: -0.298 | inactive: -0.072 | inactive: -0.012 | inactive: -0.024 | inactive: 0.017 | inactive: 0.041 | inactive: -0.188 | inactive: -0.09 | inactive: -0.012
7 | UQCRH (UniProt P07919) | inactive: 0.053 | inactive: 0.069 | inactive: -0.114 | inactive: 0.079 | inactive: 0.002 | inactive: -0.04 | inactive: -0.031 | inactive: 0.075 | inactive: -0.003 | inactive: -0.002
8 | USP47 (UniProt Q96K76) | inactive: -0.066 | inactive: -0.349 | inactive: 0.086 | inactive: -0.159 | inactive: 0.014 | inactive: 0.066 | inactive: 0.127 | inactive: -0.09 | inactive: -0.064 | inactive: 0.029
9 | UIMC1 (UniProt Q96RL1) | inactive: 0.124 | inactive: 0.103 | inactive: -0.027 | inactive: -0.079 | inactive: -0.124 | inactive: -0.009 | inactive: 0.115 | inactive: 0.064 | inactive: 0.002 | inactive: -0.063
10 | VAC14 (UniProt Q08AM6) | inactive: -0.052 | inactive: -0.107 | inactive: 0.012 | inactive: 0.005 | inactive: -0.043 | inactive: -0.021 | inactive: -0.031 | inactive: -0.202 | inactive: 0.01 | inactive: 0.016
11 | USP20 (UniProt Q9Y2K6) | inactive: -0.06 | inactive: -0.147 | inactive: 0.023 | inactive: 0.024 |  | inactive: 0.087 | inactive: 0.221 |  | inactive: 0.016 | inactive: 0.19
12 | UBFD1 (UniProt O14562) | inactive: -0.053 | inactive: -0.166 | inactive: 0.015 | inactive: -0.034 | inactive: -0.039 | inactive: 0.014 | inactive: -0.063 | inactive: -0.084 | inactive: -0.027 | inactive: 0.048
13 | UFSP2 (UniProt Q9NUQ7) | inactive: 0.026 | inactive: -0.128 | inactive: 0.02 | inactive: -0.002 | inactive: -0.055 | inactive: 0.027 | inactive: -0.015 | inactive: 0.069 | inactive: -0.057 | inactive: 0.118
14 | USF2 (UniProt Q15853) | inactive: 0.102 | inactive: 0.006 | inactive: -0.09 | inactive: 0.088 | inactive: 0.048 | inactive: -0.058 | inactive: 0.15 | inactive: -0.023 | inactive: -0.125 | inactive: -0.005
15 | USP3 (UniProt Q9Y6I4) | inactive: -0.173 | inactive: -0.325 | inactive: 0.04 | inactive: -0.083 | inactive: -0.037 | inactive: 0.063 | inactive: -0.077 | active: -0.379 |  | 
16 | UQCC2 (UniProt Q9BRT2) | inactive: 0.059 | inactive: 0.027 | inactive: -0.034 | inactive: -0.025 | inactive: 0.11 | inactive: 0.037 | inactive: 0.073 | inactive: -0.07 | inactive: 0.056 | inactive: -0.004
17 | UNC45A (UniProt Q9H3U1) | inactive: -0.044 | inactive: -0.395 | inactive: 0.058 | inactive: -0.014 | inactive: 0.04 | inactive: 0.017 | inactive: 0.157 | inactive: -0.104 | inactive: -0.067 | inactive: 0.081
18 | VAMP8 (UniProt Q9BV40) | inactive: 0 | inactive: 0.08 | inactive: -0.061 | inactive: -0.032 | inactive: 0.045 | inactive: -0.038 | inactive: 0.006 | inactive: 0.055 | inactive: 0.049 | inactive: -0.04
19 | UCHL5 (UniProt Q9Y5K5) | inactive: -0.113 | active: -0.295 | inactive: 0.074 | inactive: 0.116 | inactive: -0.028 | inactive: 0.04 | inactive: -0.003 | inactive: -0.099 |  | 
20 | UBR3 isoform 4 (UniProt Q6ZT12) | inactive: -0.312 | inactive: -0.374 |  | inactive: 0.407 |  | inactive: -0.014 | inactive: 0.216 |  | inactive: -0.11 | inactive: 0.316
21 | UEVLD (UniProt Q8IX04) | inactive: -0.085 |  | inactive: 0.129 | inactive: 0.027 | inactive: 0.016 | inactive: 0.432 | inactive: 0.092 | inactive: 0.093 | inactive: 0.159 | inactive: 0.394
22 | UBE3D (UniProt Q7Z6J8) | inactive: -0.033 | inactive: -0.053 | inactive: 0.012 | inactive: 0.031 | inactive: -0.023 | inactive: -0.004 | inactive: -0.051 | inactive: -0.016 |  | 
23 | UGCG (UniProt Q16739) | inactive: 0.006 | inactive: 0.04 |  | inactive: 0.097 |  | inactive: -0.067 | inactive: -0.155 |  | inactive: 0 | inactive: -0.03
24 | UQCR10 (UniProt Q9UDW1) | inactive: 0.093 | inactive: -0.102 | inactive: -0.031 | inactive: 0.005 | inactive: -0.112 | inactive: 0.008 | inactive: -0.016 | inactive: 0.177 |  | 
25 | UHRF1BP1 (UniProt Q6BDS2) | inactive: 0.137 | inactive: 0.131 | inactive: 0.036 | inactive: -0.067 | inactive: -0.105 | inactive: 0.012 | inactive: -0.09 | active: 0.211 |  | 
26 | USP13 (UniProt Q92995) | inactive: -0.217 | inactive: -0.012 | inactive: -0.045 |  |  | inactive: -0.029 | inactive: -0.036 |  | inactive: 0.076 | inactive: -0.013
27 | USP48 isoform 8 (UniProt Q86UV5) | active: -0.55 | active: -0.84 | inactive: 0.144 | inactive: -0.058 | inactive: -0.047 | inactive: 0.195 | inactive: -0.013 | inactive: -0.459 |  | 

Exported in CSV form: part of the list above.
Row,Target,log2 fold change [1],log2 fold change (volasertib),log2 fold change [2],log2 fold change (epoxomicin),log2 fold change [3],log2 fold change [4],log2 fold change [5],log2 fold change [6],log2 fold change [7],log2 fold change (rosiglitazone)
13,UFSP2 (UniProt Q9NUQ7),inactive: 0.026,inactive: -0.128,inactive: 0.02,inactive: -0.002,inactive: -0.055,inactive: 0.027,inactive: -0.015,inactive: 0.069,inactive: -0.057,inactive: 0.118
18,VAMP8 (UniProt Q9BV40),inactive: 0,inactive: 0.08,inactive: -0.061,inactive: -0.032,inactive: 0.045,inactive: -0.038,inactive: 0.006,inactive: 0.055,inactive: 0.049,inactive: -0.04
